Data reported in article PMC2359927.
No constants are given. Whether binding was seen depends on the method and setting. Binding seen in cells or lysates may run through a third protein.

The chains behind the UniProt entries cited, without tags or fusion partners. Where a name states a change or a piece, a line headed by the entry shows the natural chain unless it says otherwise. A line that says so, or that is headed by a name, gives the form on record, which may keep a tag or linker.
UniProt P10415: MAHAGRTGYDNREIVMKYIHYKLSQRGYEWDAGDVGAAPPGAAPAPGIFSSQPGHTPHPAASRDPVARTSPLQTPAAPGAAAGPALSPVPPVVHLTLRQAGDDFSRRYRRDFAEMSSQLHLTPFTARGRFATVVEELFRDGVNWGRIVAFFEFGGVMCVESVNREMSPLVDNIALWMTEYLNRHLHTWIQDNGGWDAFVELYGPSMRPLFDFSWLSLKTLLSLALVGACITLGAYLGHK
survivin-ΔEx3(ΔBH2) (O15392-3, form named): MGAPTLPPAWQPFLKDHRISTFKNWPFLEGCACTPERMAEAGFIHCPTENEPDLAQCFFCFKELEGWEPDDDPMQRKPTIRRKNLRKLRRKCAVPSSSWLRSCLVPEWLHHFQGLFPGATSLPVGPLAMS

Biological target: endogenous Bcl-2 (human (endogenous in HeLa)) (UniProt P10415)
Assay: co-IP; in vivo co-immunoprecipitation with an anti-Bcl-2 mAb from extracts of HeLa cells transfected with the indicated plasmids

## survivin-ΔEx3(ΔBH2) (from UniProt O15392-3 1-137)
  binding: no binding
